Values from PubChem BioAssay AID1259314 (Drosophila RNAi Screening Center, 2017).
The deposit covers about 3,100 reagents; this is an unselected part. In the full data, 289 (9.3%) were called active. 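Active includes both higher and lower ATP than plate average; check the z-score sign for direction.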 The record does not give: the amount of reagent.

Test: 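Modifiers of manganese chloride toxicity in fly cells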 (primary screen)
System: Drosophila S2R+ cells
Reagent: long dsRNA against Drosophila genes
Timing: 5 days (4 days knock-down, then 1 day metal exposure)
Treatment: manganese chloride added to 15 mM for 24 hours
Measurement: 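Luciferase ATP signal used as a proxy for viable cell number, reported as one averaged z-score per dsRNA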
Reading the numbers: mean ATP z-score: higher = more ATP than the plate average, more viable cells under manganese
Active means: 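Called active when the mean ATP z-score is above 1.5 or below -1.5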
Meaning of the calls: active = strong ATP change, up or down; inactive = no strong ATP change

Or22c (GeneID 33381) [DRSC00766]: mean ATP z-score = -0.378; outcome = inactive
Or22c (GeneID 33381) [DRSC26292]: mean ATP z-score = -0.0888; outcome = inactive
CG14196 (GeneID 32915) [DRSC19551]: mean ATP z-score = -0.171; outcome = inactive
CG14196 (GeneID 32915) [DRSC26030]: mean ATP z-score = -0.861; outcome = inactive
Ctr1C (GeneID 43668) [DRSC15089]: mean ATP z-score = 0.439; outcome = inactive
Ctr1C (GeneID 43668) [DRSC39456]: mean ATP z-score = -0.618; outcome = inactive
Tsp29Fa (GeneID 34211) [DRSC03232]: mean ATP z-score = -0.232; outcome = inactive
Tsp29Fa (GeneID 34211) [DRSC28522]: mean ATP z-score = 0.000836; outcome = inactive
TrissinR (GeneID 33812) [DRSC25084]: mean ATP z-score = 1.99; outcome = active
TrissinR (GeneID 33812) [DRSC26283]: mean ATP z-score = 0.556; outcome = inactive
Gr58c (GeneID 37501) [DRSC04136]: mean ATP z-score = -0.426; outcome = inactive
CG3106 (GeneID 31909) [DRSC18279]: mean ATP z-score = 0.296; outcome = inactive
CG3106 (GeneID 31909) [DRSC29465]: mean ATP z-score = 1.34; outcome = inactive
tipE (GeneID 38504) [DRSC08738]: mean ATP z-score = -1.13; outcome = inactive
tipE (GeneID 38504) [DRSC29985]: mean ATP z-score = 0.238; outcome = inactive
sut2 (GeneID 44269) [DRSC07701]: mean ATP z-score = -0.617; outcome = inactive
sut2 (GeneID 44269) [DRSC39500]: mean ATP z-score = 0.317; outcome = inactive
CG9458 (GeneID 41214) [DRSC16495]: mean ATP z-score = 1.56; outcome = active
ZnT35C (GeneID 34890) [DRSC01959]: mean ATP z-score = -0.667; outcome = inactive
ZnT35C (GeneID 34890) [DRSC39419]: mean ATP z-score = 6.89; outcome = active
Cse1 (GeneID 35016) [DRSC26857]: mean ATP z-score = -1.96; outcome = active
CG33203 (GeneID 43414) [DRSC14876]: mean ATP z-score = -0.436; outcome = inactive
CG33203 (GeneID 43414) [DRSC23428]: mean ATP z-score = -0.772; outcome = inactive
CG16727 (GeneID 42338) [DRSC15139]: mean ATP z-score = 1.44; outcome = inactive
CG16727 (GeneID 42338) [DRSC26820]: mean ATP z-score = 1.54; outcome = active
Polr3I (GeneID 32678) [DRSC19922]: outcome = inactive
ttv (GeneID 36614) [DRSC07709]: mean ATP z-score = 1.41; outcome = inactive
ttv (GeneID 36614) [DRSC26088]: mean ATP z-score = -1.29; outcome = inactive
aph-1 (GeneID 33467) [DRSC00547]: mean ATP z-score = 0.262; outcome = inactive
aph-1 (GeneID 33467) [DRSC39729]: mean ATP z-score = -0.461; outcome = inactive
Orct2 (GeneID 42890) [DRSC14613]: mean ATP z-score = 0.149; outcome = inactive
Orct2 (GeneID 42890) [DRSC24714]: mean ATP z-score = -0.497; outcome = inactive

Part of the list above in another layout.
{"predicted target": "Cse1 (GeneID 35016)", "dsRNA": "DRSC26857", "mean ATP z-score": -1.96, "outcome": "active"}
{"predicted target": "CG33203 (GeneID 43414)", "dsRNA": "DRSC14876", "mean ATP z-score": -0.436, "outcome": "inactive"}
